These are yes or no findings as the source states them, for the method shown. In cells and extracts the contact can be indirect. Some results given as binding are weak or reduced against the parent protein; the word gives no strength.
Columns and labels:
Assay in all cases: pull-down
[1] = target: GST-CSRP3-G78V fusion protein (human) (UniProt P50461)
[2] = target: GST-CSRP3-W140C fusion protein (human) (UniProt P50461)
[3] = target: GST-CSRP3-WT fusion protein (human) (UniProt P50461)

Protein sequences, listed by entry. Tags and fused reporters are not part of them. Lines headed by an entry give the natural chain unless they say otherwise; changes in a name come on top.
UniProt P50461: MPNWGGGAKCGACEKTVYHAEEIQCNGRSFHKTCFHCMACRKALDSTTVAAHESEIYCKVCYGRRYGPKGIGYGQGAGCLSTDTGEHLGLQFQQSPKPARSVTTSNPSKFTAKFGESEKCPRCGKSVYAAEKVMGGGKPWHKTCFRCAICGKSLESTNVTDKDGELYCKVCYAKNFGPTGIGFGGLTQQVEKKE
UniProt P35609: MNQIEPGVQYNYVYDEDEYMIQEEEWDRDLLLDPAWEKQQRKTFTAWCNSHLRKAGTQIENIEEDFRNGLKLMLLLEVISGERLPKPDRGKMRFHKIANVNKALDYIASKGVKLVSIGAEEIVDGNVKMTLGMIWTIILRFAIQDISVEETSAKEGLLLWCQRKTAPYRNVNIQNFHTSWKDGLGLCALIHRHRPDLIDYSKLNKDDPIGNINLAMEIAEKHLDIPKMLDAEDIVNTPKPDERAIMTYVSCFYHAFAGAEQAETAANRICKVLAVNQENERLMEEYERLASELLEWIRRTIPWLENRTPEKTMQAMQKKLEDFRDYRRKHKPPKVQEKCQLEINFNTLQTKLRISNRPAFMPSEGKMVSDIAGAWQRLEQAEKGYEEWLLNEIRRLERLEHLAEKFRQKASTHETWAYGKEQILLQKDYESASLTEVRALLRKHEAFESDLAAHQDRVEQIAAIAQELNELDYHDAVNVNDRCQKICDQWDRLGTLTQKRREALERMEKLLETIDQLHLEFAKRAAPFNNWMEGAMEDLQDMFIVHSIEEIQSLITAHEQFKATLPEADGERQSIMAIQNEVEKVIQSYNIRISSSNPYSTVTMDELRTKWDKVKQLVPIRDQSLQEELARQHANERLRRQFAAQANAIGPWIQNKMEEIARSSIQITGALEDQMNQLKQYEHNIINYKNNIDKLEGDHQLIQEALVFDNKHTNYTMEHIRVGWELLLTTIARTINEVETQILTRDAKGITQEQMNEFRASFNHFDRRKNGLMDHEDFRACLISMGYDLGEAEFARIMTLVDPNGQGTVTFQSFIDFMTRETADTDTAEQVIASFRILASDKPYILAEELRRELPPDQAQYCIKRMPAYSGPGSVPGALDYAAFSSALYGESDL

Measured: binding

ACTN2 (c-myc tagged) (from UniProt P35609 1-894)
binds: [1] | [2] | [3]
